Source: patent publication US8632755B2, “Consumer noticeable improvement in wetness protection” (The Procter & Gamble Company, priority 2005, dated 2014)

Experiment: Odor detection threshold (ODT) of HIA perfume ingredients, determined using a gas chromatograph
Conditions: HIA perfume ingredient of the high impact accord of Example 1

For `C=CCOC(=O)CCCCCC` [Allyl Heptanoate], which “ODT. (odor detection threshold)” value is on record?
Its value is “≧50 ppb”.

With `CC(=O)OC1CCCCC1C(C)(C)C` (stereo not shown) [Verdox] as the compound, how does the “ODT. (odor detection threshold)” value read?
Its value is “≧50 ppb”.

With `CCCCCCC=CC(=O)OC` [methyl-2-nonenoate] as the compound, how does the “ODT. (odor detection threshold)” value read?
The value was “≦50 ppb”.

Which “ODT. (odor detection threshold)” value does the source give for `CCCCCCCC1CCC(=O)O1` (stereo not shown) [Undecalactone] here?
The value was “≧50 ppb”.

With `CC(=O)/C=C/C1=C(C)CCCC1(C)C` [Ionone Beta] as the compound, how does the “ODT. (odor detection threshold)” value read?
Its value is “≦50 ppb”.

Which “ODT. (odor detection threshold)” value does the source give for `CCCCCCCCC/C=C/C=O` [Mandarin Aldehyde] here?
The value was “≦50 ppb”.

With `C/C=C\C(=O)C1C(C)=CCCC1(C)C` (stereo not drawn) [Damarose Alpha] as the compound, how does the “ODT. (odor detection threshold)” value read?
The value was “≦50 ppb”.

For `C=C(C)[C@H]1CC=C(C)CC1` [d-limonene], which “ODT. (odor detection threshold)” value is on record?
The value was “≧50 ppb”.

For `CC/C=C\CCO` [Beta Gamma Hexenol], which “ODT. (odor detection threshold)” value is on record?
The value was “≧50 ppb”.

With `C=CCCC(=O)C1=CCCC(C)(C)C1` [Neobutenone] as the compound, how does the “ODT. (odor detection threshold)” value read?
Its value is “≦50 ppb”.

Which “ODT. (odor detection threshold)” value does the source give for `CC/C=C\CCOC(C)=O` [Cis 3 Hexenyl Acetate] here?
The value was “≧50 ppb”.

With `CC1(C)C2CC=C(CCC=O)C1C2` (stereo not shown) [Pino Acetaldehyde] as the compound, how does the “ODT. (odor detection threshold)” value read?
Its value is “≦50 ppb”.

With `CCCCCCCCCC=O` [Decyl Aldehyde] as the compound, how does the “ODT. (odor detection threshold)” value read?
Its value is “≦50 ppb”.

With `CCC/C=C/C=O` [Trans-2 Hexenal] as the compound, how does the “ODT. (odor detection threshold)” value read?
Its value is “≦50 ppb”.

For `CCC=CCCC=CC=O` [2-6-nonadienal], which “ODT. (odor detection threshold)” value is on record?
Its value is “≦50 ppb”.

With `CCCCCCC(C=O)=Cc1ccccc1` [Hexyl Cinnamic Aldehyde] as the compound, how does the “ODT. (odor detection threshold)” value read?
Its value is “≧50 ppb”.

With `CCOC(=O)C(C)CC` (stereo not shown) [ethyl-2-methyl butyrate] as the compound, how does the “ODT. (odor detection threshold)” value read?
The value was “≦50 ppb”.

Which “ODT. (odor detection threshold)” value does the source give for `CC(=O)CCc1ccc(O)cc1` [Para Hydroxy Phenyl Butanone] here?
Its value is “≦50 ppb”.

For `CCCCCCCCCC(C)C=O` (stereo not shown) [Methyl Nonyl Acetaldehyde], which “ODT. (odor detection threshold)” value is on record?
Its value is “≦50 ppb”.

For `CC(C)=CCCC(C)CCCC(C)C=O` (stereo not shown) [Adoxal], which “ODT. (odor detection threshold)” value is on record?
Its value is “≧50 ppb”.

With `CC(C)=CCCC(C)C=O` (stereo not shown) [Melonal] as the compound, how does the “ODT. (odor detection threshold)” value read?
Its value is “≦50 ppb”.

Which “ODT. (odor detection threshold)” value does the source give for `CC1=CCC(C(C)CC2CCCC2=O)CC1` (stereo not shown) [Nectaryl] here?
The value was “≧50 ppb”.
